Reference: publication PMC10820826, “Interrogation and validation of the interactome of neuronal Munc18-interacting Mint proteins with AlphaFold2” (The Journal of Biological Chemistry, 2023)

Key:
Munc18-1 + Mint1 = test: ITC of Sx1a binding to Munc18-1 in the presence of Mint1 (261–282) peptide; design: species or system rat; conditions: Table 2; syringe Sx1a + Mint1, cell Munc18-1 + Mint1
[1] = tested on: Munc18-1^Δ317–333 + Mint1; test: ITC of Sx1a binding to Munc18-1 hinge-loop deletion mutant in the presence of Mint1 (261–282) peptide; design: species or system rat; conditions: Table 2; cell Munc18-1^Δ317–333 + Mint1
Source text: As Mint1 binds to Munc18-1 domain 3b, we hypothesized that the perturbed Mint1 interaction on deletion of the distal domain 3a hinge-loop might be due to altered structural dynamics in the combined domain3a/3b module. […] This is in line with the ability to cocrystallize the three proteins when excess Mint1 peptide is present ([47]). […] This has potential implications for a role of Mint proteins in Munc18-1-mediated SNARE assembly, which is a tightly regulated and highly dynamic process.
For ITC, all peptides were weighed and initially dissolved in the working buffer to make a stock concentration of 2 mM. […] GST-Mint1 and all the other proteins used in the experiments were buffer exchanged into 50 mM Tris (pH 8.0) and 200 mM NaCl by gel filtration prior to ITC. […] Mint1 PTB domain binding to the APP and TJAP1 peptides was performed in 50 mM Hepes, 200 mM NaCl, 0.5 mM TCEP, and 5% glycerol at 25 °C with 1 mM peptides titrated into 50 μM Mint1 PTB domain. The binding parameters, equilibrium constant Ka (1/Kd), stoichiometry (n), and the enthalpy (ΔH) were determined by processing the ITC data using ORIGIN 7.0 software. The equation, ΔG = ΔH – TΔS, was used to calculate the Gibbs free energy (ΔG), and all the experiments were performed in triplicate or duplicate to calculate the SEM for thermodynamic parameters.

Substance: Sx1a: recombinant rat Syntaxin1a (Sx1_1–261-His) expressed in E. coli
- N (stoichiometry) (Munc18-1 + Mint1): 1
- ΔG (Munc18-1 + Mint1): -9.0 ± 0.3 kcal/mol
- ΔH (Munc18-1 + Mint1): -29.7 ± 1.9 kcal/mol
- −TΔS (Munc18-1 + Mint1): 20.7 ± 2.4 kcal/mol
- N (stoichiometry) [1]: 1
- ΔG [1]: -9.6 kcal/mol
- −TΔS [1]: 9.2 kcal/mol
